# At least one compound was matched to its structure with a doubt left.
# Test system: PDAC tumor spheroids (Pa03C and Panc10.05) alone and with CAFs
# Assay: Three-dimensional growth assay, PDAC/CAF co-culture (Example 2)
# Type: cell-based, human
# Conditions: tumor spheroids alone and in culture with CAFs
# Method: Ninety-six well plates were coated with 1% Noble Agar (Difco) (50 μL/well). mCherry-labeled PDAC cells and EGFP-labeled CAFs were resuspended in normal growth media containing 3% Matrigel (BD Biosciences) at a cell ratio of 1:4 (tumor:CAF) and plated on top of solidified 1% Noble Agar. Cells were fed on Days 4 and 8 following plating with media containing 5% serum+3% Matrigel+investigational drug.
# Utilizing APX3330, JAK 2 inhibitor (Ruxolitinib (INCB018424; Fisher Scientific) (“RUX”)) and lead STATS inhibitors (PG-S3-001, DR-4-89), the effects of Ref-1/STAT3 inhibition in PDAC low passage patient-derived cell lines (Pa03C and Panc10.05) were evaluated. The response using proliferation-based 3D co-culture assays and statistical analyses to assess synergy, additively or antagonism was evaluated using the Chou-Talalay method.
# This Example was designed to visualize the same live co-cultures over 12 days with images captured by Thermo ArrayScan at 8 and 12 days of co-culture. Cancer and stromal cells in this model were marked with distinct fluorescent proteins (mCherry for tumor and EGFP for CAFs) so that the cell populations could be differentiated and quantified. […] In this way, drug efficacy of PDAC cells could be evaluated in co-culture with CAFs, which more faithfully mimics the natural in vivo PDAC environment.
compound,measurement,value
"N#CC[C@H](C1CCCC1)n1cc(-c2ncnc3[nH]ccc23)cn1 [RUX, Ruxolitinib]",killing of tumor spheroids,effectively killed both tumor spheroids alone and in culture with CAFs
